Experimental data from PubChem BioAssay (EPA / NIEHS).
Values joined by “and” are separate entries in the source; they are usually repeats but may differ in a detail not shown here. Equal entries are not always repeated. The inconclusive results got no clear call from the source; some entries with a clear call stand among them for comparison. Where the call is inconclusive, the potency comes from a doubtful curve fit. Active and inactive are the calls of the source. The calls were made as follows: active = hit-call score of the fitted dose curve at least 0.9, where 1 is the maximum; inconclusive = response in the unintended direction; inactive = score below 0.9.

Chains of the proteins cited; added tags and fusions are not shown.
UniProt P03372, whole entry, looked up: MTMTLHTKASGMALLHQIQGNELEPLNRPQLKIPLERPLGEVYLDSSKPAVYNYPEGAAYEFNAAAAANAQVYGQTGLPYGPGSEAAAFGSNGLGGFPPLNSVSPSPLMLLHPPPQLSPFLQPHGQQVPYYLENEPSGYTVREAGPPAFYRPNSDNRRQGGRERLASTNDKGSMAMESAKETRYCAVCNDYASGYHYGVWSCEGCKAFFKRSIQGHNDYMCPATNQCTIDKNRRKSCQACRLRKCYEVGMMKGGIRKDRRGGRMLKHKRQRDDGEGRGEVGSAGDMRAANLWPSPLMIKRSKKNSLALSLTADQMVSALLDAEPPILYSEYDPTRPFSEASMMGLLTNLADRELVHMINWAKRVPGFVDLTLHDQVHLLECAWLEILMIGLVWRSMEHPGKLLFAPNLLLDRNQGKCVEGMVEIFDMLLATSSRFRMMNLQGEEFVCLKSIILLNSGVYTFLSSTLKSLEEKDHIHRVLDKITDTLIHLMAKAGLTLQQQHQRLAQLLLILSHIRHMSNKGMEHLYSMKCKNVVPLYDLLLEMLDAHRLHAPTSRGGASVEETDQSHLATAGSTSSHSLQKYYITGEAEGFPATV

biological target: Estrogen receptor (Homo sapiens) (UniProt P03372); experiment: CCTE_Deisenroth_AIME_384WELL_LUC_Inactive: CCTE's 384-well Estrogen Receptor Transactivation Assay without AIME metabolic competence (ERTA luciferase; metabolism negative), Deisenroth Lab (AID 2284038);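 also: VM7Luc4E2 breast cells given medium preincubated 2 h with S9-free microspheres; hits raise estrogen receptor luciferase signal so potencies reflect agonists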
Method in brief: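 Metabolism-negative mode: AIME lids stamped in alginate-water, no hepatic S9. 2 h chemical incubation → medium onto VM7Luc4E2 ERTA, 24 h. Readout luciferase luminescence; gain-of-signal fit vs 17beta-estradiol. Conc. 0.002 - 200 uM.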

| SMILES | outcome | AC50 |
| --- | --- | --- |
| CCOC(=O)C(C)OC(=O)c1cc(Oc2ccc(C(F)(F)F)cc2Cl)ccc1[N+](=O)[O-] (centres undefined) | inactive |  |
| CC(C)N(C(=O)COc1nnc(C(F)(F)F)s1)c1ccc(F)cc1 |  | inconclusive: 153000 nM |
| C1CC2OC2CC1C1CO1 (centres undefined) | inactive |  |
| CCOP(=S)(OCC)SCSP(=S)(OCC)OCC |  | active: 10300 nM |

system: not listed separately; experiment: CCTE_Deisenroth_AIME_384WELL_CTox_Inactive: Cytotoxicity Assessment (CTOX) in CCTE's 384-well Estrogen Receptor Transactivation Assay without AIME metabolic competence (metabolism negative), Deisenroth Lab (AID 2284039);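 also: cell viability via live-cell protease substrate cleaved to fluorescent probe; cells exposed 24 h to medium preincubated 2 h with alginate-water beads without S9; loss of fluorescence signal means loss of viability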
Method in brief: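 Fluorescence from a live-cell protease substrate, read after 24 h in VM7Luc4E2 cells, indicated viability. Test medium came from a 2 h AIME step without hepatic S9 (alginate-water microspheres); concentrations spanned 0.002 - 200 uM, single technical replicate per run.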

| SMILES | AC50 | outcome |
| --- | --- | --- |
| CCOC(=O)C(C)OC(=O)c1cc(Oc2ccc(C(F)(F)F)cc2Cl)ccc1[N+](=O)[O-] (centres undefined) | active: 100000 nM |  |
| Cc1ccn2nc(S(=O)(=O)Nc3c(F)cccc3F)nc2n1 | inconclusive: 0.2 nM |  |
| Cc1cc(C)nc(Nc2ccccc2)n1 | inconclusive: 0.2 nM |  |
| CN(C)CCO | inconclusive: 0.21 nM |  |
| COc1ccc(O)c(C(C)(C)C)c1 | inconclusive: 0.202 nM |  |
| N#Cc1cccnc1 | inconclusive: 0.2 nM |  |
| COP(N)(=O)SC (centres undefined) | inconclusive: 0.2 nM |  |
| CC(C)N1C(=O)c2ccccc2NS1(=O)=O | inconclusive: 1.26 nM |  |
| NC(=O)O |  | inactive |
| O=C(Oc1ccc(Br)cc1)N1CCN2CCC1CC2 | inconclusive: 0.2 nM |  |
| C[C@]12CC[C@H](O)CC1=CC[C@@H]1[C@@H]2CC[C@]2(C)C(=O)CC[C@@H]12 | inconclusive: 0.211 nM |  |
| Cc1ccc([N+](=O)[O-])cc1 |  | inactive |
| C[N+](C)(C)CC1CO1 (centres undefined) |  | inactive |
| CC(C)OC(=O)Nc1ccccc1 | inconclusive: 0.252 nM |  |
| C[C@]12CCC(=O)C[C@@H]1CC[C@@H]1[C@@H]2CC[C@]2(C)[C@@H](O)CC[C@@H]12 | inconclusive: 70.8 nM |  |
| C=C(C)C#N | inconclusive: 0.2 nM |  |
| O=S(=O)(c1ccc(Cl)cc1)c1ccc(Cl)cc1 |  | inactive |
| CNC(=O)Oc1ccccc1OC(C)C | inconclusive: 0.2 nM |  |

system: not listed separately; experiment: CCTE_Shafer_MEA_dev_active_electrodes_number: CCTE's Neural Network Formation Assay for Number of Active Electrodes, Shafer Lab (AID 2284040);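 as to AC50: potency for loss of active electrodes versus DMSO so lower counts are hits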
Method in brief: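 Developing rat cortical networks on MEAs, exposed DIV 0–12. Value is the AUC of active-electrode counts (≥5 spikes/min) from days 5, 7, 9, 12, relative to DMSO.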

| SMILES | AC50 | outcome |
| --- | --- | --- |
| O=C(O)C1C(C(=O)O)C2(Cl)C(Cl)=C(Cl)C1(Cl)C2(Cl)Cl (centres undefined) | inconclusive: 0.474 µM |  |
| CCSC(=O)N1CCCCCC1 | active: 3.42 µM and inconclusive: 50 µM |  |
| O=C(O)C(F)(F)C(F)(F)C(F)(F)C(F)(F)C(F)(F)C(F)(F)F | inconclusive: 26.8 µM |  |
| COc1ccc(O)c(C(C)(C)C)c1 | inconclusive: 15 µM |  |
| COP(N)(=O)SC (centres undefined) | inconclusive: 50 µM |  |
| CN/C(=N\[N+](=O)[O-])NCc1cnc(Cl)s1 | inconclusive: 10 µM | inactive |
